Results: patent US20240317845A1 (NINGBO SANSHENG BIOLOGICAL TECHNOLOGY, published 2024)
These are yes or no findings as the source states them, for the method shown. Some results given as binding are weak or reduced against the parent protein; the word gives no strength.

Target: 6-25 fragment of inhibin α-subunits coupled to chicken ovalbumin (OVA) (porcine (fragment said to be 100% identical in mice, rats, pigs, cattle and goats); chicken) (UniProt P01012)
Test: indirect ELISA, plate coated with 6-25 fragment-OVA, culture supernatant

binding: binds
B1: anti-inhibin monoclonal antibody 1E5 secreted by hybridoma cell line 1E57 (antibody, V domains shown)
VH: EVKLVESGPELKKPGETVKISCKASGYTFTDYSMHWVKQAPGKGLKWMGWINTETGEPTYADDFKGRFAFSLETSASTAYLQINNLKNEDTATYFCAYYGPPTYSLDYWGQGASVTVSS
VL: DIQMTQTTSSLSASLGDRVTISCRASQGISNYLNWYQQKPDGTVKLLIYYTSRLLSGVPSRFSGSGSGTDYSLTISNLEQEDIATYFCQQGYTLPFTFGSGTKLEIK
notes: Mouse hybridoma antibody; Tested as culture supernatant, as ascites and as Protein G purified ascites antibody; also called 1E57 culture supernatant; ascites-derived monoclonal antibody 1E5
